The other results are listed elsewhere or left out.
Experiments:
Experiment in all cases: log2 fold change, soluble protein after heating vs DMSO (PISA); higher = thermal stabilisation; K562 cells, 10 uM, 30 min; active = over 0.2 and 3.5 SD of the protein, either way, in both replicates (recomputed)
[1] = compound: CC[C@@H]1C(=O)N(C)c2cnc(Nc3ccc(C(=O)NC4CCN(C)CC4)cc3OC)nc2N1C1CCCC1
How it was run: (§1)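 For each measurement, 10 μM compound was applied for 30 min to K562 cells at 2×10^6 cells/mL. Aliquots were heated for 3 min across 48°C-58°C, pooled, and extracted in PBS with 0.5% NP-40 at 4°C; the supernatant after 21,000xg for 90 min was soluble protein. This was quantified by TMTpro 16plex LC-MS/MS with channel sums equalised, and thermal stability was reported relative to control samples from duplicates, on a log2 fold-change scale.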

By UniProt entry, the sequences of proteins in these tests, tags left out. Where a name states a change or a piece, a line headed by the entry shows the natural chain unless it says otherwise.
UniProt Q9NYG5, whole entry, looked up: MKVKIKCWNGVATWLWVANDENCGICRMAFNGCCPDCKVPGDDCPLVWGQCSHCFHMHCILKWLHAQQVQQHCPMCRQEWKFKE
UniProt Q9Y303: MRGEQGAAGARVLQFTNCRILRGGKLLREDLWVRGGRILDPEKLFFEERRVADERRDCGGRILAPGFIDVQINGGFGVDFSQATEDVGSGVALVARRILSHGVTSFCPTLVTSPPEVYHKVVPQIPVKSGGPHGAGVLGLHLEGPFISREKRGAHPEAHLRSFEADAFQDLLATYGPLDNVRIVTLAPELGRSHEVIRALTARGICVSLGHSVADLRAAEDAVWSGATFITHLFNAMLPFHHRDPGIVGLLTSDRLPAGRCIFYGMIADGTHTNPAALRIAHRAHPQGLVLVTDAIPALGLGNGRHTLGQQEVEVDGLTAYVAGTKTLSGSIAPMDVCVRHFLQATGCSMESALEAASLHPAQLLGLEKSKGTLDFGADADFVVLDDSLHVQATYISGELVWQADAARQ
UniProt P04075: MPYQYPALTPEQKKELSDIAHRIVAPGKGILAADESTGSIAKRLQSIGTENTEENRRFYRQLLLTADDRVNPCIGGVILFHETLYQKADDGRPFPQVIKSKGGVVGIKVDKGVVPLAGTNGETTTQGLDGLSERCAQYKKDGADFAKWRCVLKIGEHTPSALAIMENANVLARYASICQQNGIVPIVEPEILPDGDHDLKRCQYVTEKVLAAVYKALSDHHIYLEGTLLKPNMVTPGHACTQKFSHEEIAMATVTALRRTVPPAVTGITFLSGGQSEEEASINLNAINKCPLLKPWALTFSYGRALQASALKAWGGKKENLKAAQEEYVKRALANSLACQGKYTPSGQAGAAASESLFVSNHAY
UniProt Q3MIX3: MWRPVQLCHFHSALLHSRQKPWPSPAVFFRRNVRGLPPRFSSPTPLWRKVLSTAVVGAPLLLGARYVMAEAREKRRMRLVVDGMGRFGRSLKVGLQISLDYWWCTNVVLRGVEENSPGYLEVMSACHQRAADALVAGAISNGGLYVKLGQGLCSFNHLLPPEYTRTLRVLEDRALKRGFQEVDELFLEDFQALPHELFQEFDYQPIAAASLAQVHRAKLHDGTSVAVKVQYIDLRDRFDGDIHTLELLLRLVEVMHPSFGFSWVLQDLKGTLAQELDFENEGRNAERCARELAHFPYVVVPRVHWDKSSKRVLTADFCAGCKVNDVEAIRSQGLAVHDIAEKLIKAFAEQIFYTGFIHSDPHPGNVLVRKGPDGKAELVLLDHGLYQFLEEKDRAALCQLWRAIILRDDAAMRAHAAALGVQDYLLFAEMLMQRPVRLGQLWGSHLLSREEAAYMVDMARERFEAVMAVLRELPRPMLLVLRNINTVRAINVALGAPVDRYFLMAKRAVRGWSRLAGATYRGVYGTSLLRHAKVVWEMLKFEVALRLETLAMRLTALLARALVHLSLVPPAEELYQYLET
UniProt Q9NRZ5: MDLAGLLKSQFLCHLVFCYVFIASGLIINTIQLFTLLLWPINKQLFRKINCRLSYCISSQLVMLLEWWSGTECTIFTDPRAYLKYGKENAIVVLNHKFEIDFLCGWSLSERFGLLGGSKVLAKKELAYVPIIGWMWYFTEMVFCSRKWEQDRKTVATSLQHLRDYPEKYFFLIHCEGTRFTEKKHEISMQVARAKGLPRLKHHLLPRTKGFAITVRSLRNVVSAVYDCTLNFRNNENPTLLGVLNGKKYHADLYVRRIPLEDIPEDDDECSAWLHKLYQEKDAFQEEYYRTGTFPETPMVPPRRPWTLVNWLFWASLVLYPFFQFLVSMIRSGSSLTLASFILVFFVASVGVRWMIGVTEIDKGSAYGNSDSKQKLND
UniProt Q9UEY8: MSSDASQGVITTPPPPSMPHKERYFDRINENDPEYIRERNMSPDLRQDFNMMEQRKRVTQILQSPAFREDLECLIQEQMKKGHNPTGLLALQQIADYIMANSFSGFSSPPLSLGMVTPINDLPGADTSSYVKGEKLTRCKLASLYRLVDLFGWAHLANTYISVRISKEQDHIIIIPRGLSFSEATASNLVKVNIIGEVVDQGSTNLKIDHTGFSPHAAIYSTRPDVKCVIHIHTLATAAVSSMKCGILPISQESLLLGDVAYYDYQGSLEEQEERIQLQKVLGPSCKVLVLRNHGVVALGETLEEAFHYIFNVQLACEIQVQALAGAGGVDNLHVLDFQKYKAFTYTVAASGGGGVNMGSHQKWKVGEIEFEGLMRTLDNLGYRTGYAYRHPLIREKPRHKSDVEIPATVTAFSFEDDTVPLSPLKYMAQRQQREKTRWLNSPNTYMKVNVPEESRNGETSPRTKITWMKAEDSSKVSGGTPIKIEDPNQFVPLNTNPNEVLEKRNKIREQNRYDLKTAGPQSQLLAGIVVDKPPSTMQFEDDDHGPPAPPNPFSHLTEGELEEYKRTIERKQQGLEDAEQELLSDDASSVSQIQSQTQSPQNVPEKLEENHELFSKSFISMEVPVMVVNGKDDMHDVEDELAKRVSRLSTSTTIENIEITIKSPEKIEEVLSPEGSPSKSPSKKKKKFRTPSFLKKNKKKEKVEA
UniProt Q9BV10: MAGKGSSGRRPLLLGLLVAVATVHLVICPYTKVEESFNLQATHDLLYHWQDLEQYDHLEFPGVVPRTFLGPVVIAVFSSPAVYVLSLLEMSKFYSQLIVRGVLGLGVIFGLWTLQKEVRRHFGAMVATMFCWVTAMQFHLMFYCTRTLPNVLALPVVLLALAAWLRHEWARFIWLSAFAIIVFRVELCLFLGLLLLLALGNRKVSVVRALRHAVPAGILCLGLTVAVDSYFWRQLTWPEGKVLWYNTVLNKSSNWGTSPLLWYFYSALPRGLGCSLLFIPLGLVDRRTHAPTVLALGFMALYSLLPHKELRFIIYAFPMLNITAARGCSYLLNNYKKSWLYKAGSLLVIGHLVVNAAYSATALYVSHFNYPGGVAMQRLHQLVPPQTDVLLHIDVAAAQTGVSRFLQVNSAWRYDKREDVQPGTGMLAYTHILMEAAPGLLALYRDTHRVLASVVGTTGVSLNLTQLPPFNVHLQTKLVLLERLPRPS
UniProt P17707: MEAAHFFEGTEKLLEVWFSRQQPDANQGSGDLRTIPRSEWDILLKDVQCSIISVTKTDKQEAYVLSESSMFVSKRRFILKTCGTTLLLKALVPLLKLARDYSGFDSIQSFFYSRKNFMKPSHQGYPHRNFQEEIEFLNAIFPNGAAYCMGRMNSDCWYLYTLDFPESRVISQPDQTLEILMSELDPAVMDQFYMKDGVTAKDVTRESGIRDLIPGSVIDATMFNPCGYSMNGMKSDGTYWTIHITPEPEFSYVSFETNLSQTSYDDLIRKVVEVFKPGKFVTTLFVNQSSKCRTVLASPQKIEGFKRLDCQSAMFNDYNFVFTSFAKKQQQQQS
UniProt O75342: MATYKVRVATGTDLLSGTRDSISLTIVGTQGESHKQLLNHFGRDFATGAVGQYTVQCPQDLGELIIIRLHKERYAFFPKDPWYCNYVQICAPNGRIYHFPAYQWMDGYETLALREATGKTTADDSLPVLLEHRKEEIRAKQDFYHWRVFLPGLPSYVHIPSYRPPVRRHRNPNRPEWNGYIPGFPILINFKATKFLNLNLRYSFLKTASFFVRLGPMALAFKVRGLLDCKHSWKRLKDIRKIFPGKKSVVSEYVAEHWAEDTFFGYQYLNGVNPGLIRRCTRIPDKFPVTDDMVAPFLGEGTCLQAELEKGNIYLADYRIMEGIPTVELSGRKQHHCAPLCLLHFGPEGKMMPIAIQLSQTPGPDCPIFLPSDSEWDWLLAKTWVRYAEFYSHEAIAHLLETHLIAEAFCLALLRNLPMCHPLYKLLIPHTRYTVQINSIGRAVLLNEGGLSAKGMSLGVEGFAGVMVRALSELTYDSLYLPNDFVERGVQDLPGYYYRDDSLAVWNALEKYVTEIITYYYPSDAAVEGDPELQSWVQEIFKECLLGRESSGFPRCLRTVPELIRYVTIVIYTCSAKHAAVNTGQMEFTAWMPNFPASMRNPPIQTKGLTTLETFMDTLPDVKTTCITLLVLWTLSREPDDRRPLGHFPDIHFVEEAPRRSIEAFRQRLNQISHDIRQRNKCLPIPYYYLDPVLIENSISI
UniProt P05091: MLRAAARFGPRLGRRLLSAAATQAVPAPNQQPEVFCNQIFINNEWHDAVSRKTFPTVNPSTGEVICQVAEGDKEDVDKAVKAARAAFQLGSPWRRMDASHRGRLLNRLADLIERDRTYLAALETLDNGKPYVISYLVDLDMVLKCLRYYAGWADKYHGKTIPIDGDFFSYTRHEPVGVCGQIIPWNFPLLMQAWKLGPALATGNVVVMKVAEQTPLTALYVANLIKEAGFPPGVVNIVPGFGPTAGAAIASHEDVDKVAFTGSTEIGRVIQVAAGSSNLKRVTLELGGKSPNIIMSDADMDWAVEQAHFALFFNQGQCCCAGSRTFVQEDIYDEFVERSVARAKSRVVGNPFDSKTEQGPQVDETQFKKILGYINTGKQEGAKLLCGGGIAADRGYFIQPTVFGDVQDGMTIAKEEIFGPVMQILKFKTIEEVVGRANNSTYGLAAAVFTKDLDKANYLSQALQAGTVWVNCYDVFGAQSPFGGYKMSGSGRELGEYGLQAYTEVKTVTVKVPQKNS
UniProt P31751: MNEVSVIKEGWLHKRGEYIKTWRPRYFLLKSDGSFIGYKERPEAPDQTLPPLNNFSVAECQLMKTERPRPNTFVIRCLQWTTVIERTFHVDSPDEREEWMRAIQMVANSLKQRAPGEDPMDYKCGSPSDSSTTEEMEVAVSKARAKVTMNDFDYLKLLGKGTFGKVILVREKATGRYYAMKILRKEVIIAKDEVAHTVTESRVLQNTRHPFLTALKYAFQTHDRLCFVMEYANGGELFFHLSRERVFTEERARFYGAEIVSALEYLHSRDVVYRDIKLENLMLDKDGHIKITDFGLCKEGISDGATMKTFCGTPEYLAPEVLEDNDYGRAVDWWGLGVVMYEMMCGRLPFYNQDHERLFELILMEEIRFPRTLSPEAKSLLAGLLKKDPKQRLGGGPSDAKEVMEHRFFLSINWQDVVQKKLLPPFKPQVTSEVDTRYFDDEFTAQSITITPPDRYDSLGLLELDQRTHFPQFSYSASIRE
UniProt Q6QNK2: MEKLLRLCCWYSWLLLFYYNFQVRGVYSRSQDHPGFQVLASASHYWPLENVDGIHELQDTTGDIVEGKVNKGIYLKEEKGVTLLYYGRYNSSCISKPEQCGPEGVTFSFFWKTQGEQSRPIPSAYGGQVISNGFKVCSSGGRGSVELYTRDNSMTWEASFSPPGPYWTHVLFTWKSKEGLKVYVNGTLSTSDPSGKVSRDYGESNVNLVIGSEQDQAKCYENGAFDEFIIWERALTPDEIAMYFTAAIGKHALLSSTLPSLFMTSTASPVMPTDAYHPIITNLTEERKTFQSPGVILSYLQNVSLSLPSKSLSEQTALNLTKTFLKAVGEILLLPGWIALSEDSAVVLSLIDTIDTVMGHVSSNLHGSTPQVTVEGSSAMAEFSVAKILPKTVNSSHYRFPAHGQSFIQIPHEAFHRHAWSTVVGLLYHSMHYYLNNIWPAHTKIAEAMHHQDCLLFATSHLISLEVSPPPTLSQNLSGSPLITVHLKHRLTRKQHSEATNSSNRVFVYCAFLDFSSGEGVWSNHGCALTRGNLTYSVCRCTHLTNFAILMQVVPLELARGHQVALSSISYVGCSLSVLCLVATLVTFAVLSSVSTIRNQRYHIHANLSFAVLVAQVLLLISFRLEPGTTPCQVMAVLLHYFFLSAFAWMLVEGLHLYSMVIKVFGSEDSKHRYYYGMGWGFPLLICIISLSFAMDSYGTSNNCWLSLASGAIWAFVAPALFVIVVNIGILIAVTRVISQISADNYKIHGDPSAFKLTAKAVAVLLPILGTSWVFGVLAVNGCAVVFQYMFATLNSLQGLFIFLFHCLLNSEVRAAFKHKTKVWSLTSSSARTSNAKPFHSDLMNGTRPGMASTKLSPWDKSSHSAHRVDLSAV

[2] = compound: CCn1c(C(=O)N(C2CC2)C2CC2)cc2c3c(ncn3C)c(Nc3cc(C)n(C)n3)nc21
How it was run: as §1

[3] = compound: CN(C)CC(=O)Nc1ccc2[nH]c(=O)c3ccccc3c2c1
How it was run: as §1

[4] = compound: CN(CCOC1=CC=C(C=C1)C[C@H]2C(=O)NC(=O)S2)C3=CC=CC=N3 (racemic) [rosiglitazone]
How it was run: as §1

[5] = compound: CN1C2=C(C3=C1C(=O)N(N=C3)CC4=CC(=CC=C4)N)SC(=C2)S(=O)C
How it was run: as §1

[6] = compound: CN1CCN(CCOc2cc(OC3CCOCC3)c3c(Nc4c(Cl)ccc5c4OCO5)ncnc3c2)CC1 [saracatinib]
How it was run: as §1

[7] = compound: CN1CC[C@H](c2c(O)cc(O)c3c(=O)cc(-c4ccccc4Cl)oc23)[C@H](O)C1 [alvocidib]
How it was run: as §1

[8] = compound: CNC(=O)C1=CC=CC=C1NC2=NC(=NC=C2Cl)NC3=C(C=C(C=C3)N4CCOCC4)OC
How it was run: as §1

[9] = compound: CNC(=O)c1ccc(Nc2ncc(C(F)(F)F)c(NCc3nccnc3N(C)S(C)(=O)=O)n2)cc1 [defactinib]
How it was run: as §1

[10] = compound: CNCc1ccc(-c2[nH]c3cc(F)cc4c3c2CCNC4=O)cc1 [rucaparib]
How it was run: as §1

[11] = compound: CNc1nc(-c2ccc3c(N)n[nH]c3c2)cc(N2C[C@@H](C(=O)NC3CCCCC3)CC[C@H]2C)n1
How it was run: as §1

[12] = compound: COC(=O)N[C@@H](C)CNc1nccc(-c2cn(C(C)C)nc2-c2cc(Cl)cc(NS(C)(=O)=O)c2F)n1 [encorafenib]
How it was run: as §1

[13] = compound: COC(=O)[C@H](CCSC)NC(=O)C1=C(C=C(C=C1)NC[C@H](CS)N)C2=CC=CC=C2
How it was run: as §1

[14] = compound: CC[C@@H]1C(=O)N(C)c2cnc(Nc3ccc(C(=O)N[C@H]4CC[C@H](N5CCN(CC6CC6)CC5)CC4)cc3OC)nc2N1C(C)C [volasertib]
How it was run: as §1

[15] = compound: CCn1cc(-c2ccnc3[nH]c(-c4cccc(CN(C)C)c4)cc23)c(-c2ccc(NC(=O)N(C)C)cc2)n1
How it was run: as §1

[16] = compound: CN1CCC(CNc2ccc3ncc(-c4cccc(OC(F)(F)F)c4)n3n2)CC1
How it was run: as §1

[17] = compound: CN1CCN(c2nc(C3=C(c4c[nH]c5ccccc45)C(=O)NC3=O)c3ccccc3n2)CC1 [sotrastaurin]
How it was run: as §1

[18] = compound: CN1CCc2c(c3ccccc3n2Cc2ccc(C(=O)NO)cc2)C1 [Tubastatin A]
How it was run: as §1

[19] = compound: CC[C@H](C)N1C=C(C2=C(C=C(C=C21)C3=CN=C(C=C3)N4CCNCC4)C(=O)NCC5=C(C=C(NC5=O)C)C)C
How it was run: as §1

[20] = compound: CC[C@H](C)[C@@H](C(=O)N[C@@H]([C@@H](C)O)C(=O)N[C@@H](CC(C)C)C(=O)[C@]1(CO1)C)NC(=O)[C@H]([C@@H](C)CC)N(C)C(=O)C [epoxomicin]
How it was run: as §1

Measured: log2 fold change

ANAPC11 (UniProt Q9NYG5)
inactive: [1] -0.073 | [2] -0.307 | [3] -0.044 | [4] -0.064 | [5] -0.044 | [6] 0.1 | [7] 0.023 | [8] 0.268 | [9] 0.059 | [10] 0.062 | [11] -0.053 | [12] 0.093 | [13] 0.019

AMDHD2 (UniProt Q9Y303)
inactive: [1] -0.174 | [14] 0.08 | [2] 0.169 | [15] -0.118 | [3] 0.064 | [5] -0.156 | [16] 0.057 | [6] 0.047 | [17] 0.013 | [7] -0.171 | [18] 0.309 | [8] 0.171 | [9] -0.05 | [10] 0.229 | [11] 0.085 | [12] 0.003 | [13] -0.088

ALDOA (UniProt P04075)
inactive: [1] 0.075 | [14] 0.128 | [19] -0.004 | [2] -0.146 | [15] 0.023 | [3] -0.044 | [4] 0.017 | [5] -0.103 | [16] -0.008 | [6] 0.101 | [17] 0.006 | [18] 0.05 | [8] 0.106 | [9] -0.029 | [10] -0.037 | [11] -0.033 | [12] -0.007 | [13] 0.004

ADCK5 (UniProt Q3MIX3)
inactive: [1] 0.025 | [20] 0.072 | [2] 0.077 | [3] -0.144 | [17] -0.012 | [18] -0.043 | [8] -0.101 | [9] -0.005 | [10] -0.083 | [12] 0.063 | [13] -0.021

AGPAT4 (UniProt Q9NRZ5)
inactive: [1] -0.019 | [14] -0.102 | [19] -0.086 | [2] 0.076 | [15] 0.01 | [4] -0.023 | [5] -0.125 | [16] -0.062 | [6] -0.118 | [17] 0.07 | [7] -0.075 | [18] -0.034 | [8] -0.051 | [10] 0.045 | [11] -0.246 | [12] -0.058

ADD3 isoform 2 (UniProt Q9UEY8)
inactive: [1] 0.021 | [14] -0.037 | [20] -0.022 | [15] 0.066 | [3] 0.036 | [5] -0.093 | [16] -0.128 | [6] -0.112 | [17] 0.014 | [18] 0.058 | [9] -0.025 | [10] -0.036 | [11] -0.172 | [12] -0.166 | [13] -0.025

ALG12 (UniProt Q9BV10)
inactive: [1] 0.119 | [14] -0.02 | [20] -0.045 | [2] 0 | [3] 0.066 | [4] 0.016 | [5] -0.043 | [6] 0.069 | [17] 0.205 | [7] 0.152 | [18] 0.02 | [8] 0.031 | [9] -0.005 | [10] -0.134 | [11] 0.014 | [12] 0.125 | [13] -0.003

AMD1 (UniProt P17707)
inactive: [1] 0.061 | [14] -0.098 | [19] 0.099 | [20] 0.057 | [15] -0.033 | [3] -0.101 | [16] -0.091 | [17] -0.017 | [18] 0.014 | [8] 0.02 | [9] 0.082 | [10] -0.08 | [12] 0.023 | [13] 0.042

ALOX12B (UniProt O75342)
inactive: [1] 0.107 | [14] 0.08 | [3] 0.465 | [4] -0.139 | [5] 0.484 | [6] -0.333 | [17] -0.046 | [18] 0.238 | [9] 0.206 | [10] 0.056 | [11] 0.294 | [12] -0.137 | [13] 0.013

ALMS1 (UniProt Q8TCU4)
inactive: [1] -0.044 | [19] 0.064 | [2] -0.143 | [15] 0.055 | [4] 0.13 | [16] -0.066 | [8] 0.02 | [10] -0.067 | [12] -0.034

ALDH2 isoform 2 (UniProt P05091)
inactive: [1] 0.183 | [14] 0.033 | [20] -0.176 | [15] -0.014 | [3] -0.015 | [16] -0.072 | [17] 0.161 | [18] 0.005 | [9] 0.06 | [10] -0.255 | [12] 0.097 | [13] -0.003

AKT2 (UniProt P31751)
inactive: [1] -0.017 | [14] -0.253 | [19] 0.128 | [20] 0.079 | [15] -0.175 | [3] -0.026 | [5] -0.038 | [16] -0.119 | [6] -0.012 | [17] -0.068 | [18] 0.01 | [8] 0.042 | [9] -0.009 | [10] -0.058 | [11] -0.102 | [12] 0.015 | [13] 0.013

ADGRD1 isoform 4 (UniProt Q6QNK2)
inactive: [1] -0.206 | [10] -0.224 | [12] 0.203

Reference: the supplement of paper PMC10849652
